The source of these data is patent US20040091453.

The chains behind the UniProt entries cited, without tags or fusion partners. Residues count along the entry.
UniProt P27008, 2-1014: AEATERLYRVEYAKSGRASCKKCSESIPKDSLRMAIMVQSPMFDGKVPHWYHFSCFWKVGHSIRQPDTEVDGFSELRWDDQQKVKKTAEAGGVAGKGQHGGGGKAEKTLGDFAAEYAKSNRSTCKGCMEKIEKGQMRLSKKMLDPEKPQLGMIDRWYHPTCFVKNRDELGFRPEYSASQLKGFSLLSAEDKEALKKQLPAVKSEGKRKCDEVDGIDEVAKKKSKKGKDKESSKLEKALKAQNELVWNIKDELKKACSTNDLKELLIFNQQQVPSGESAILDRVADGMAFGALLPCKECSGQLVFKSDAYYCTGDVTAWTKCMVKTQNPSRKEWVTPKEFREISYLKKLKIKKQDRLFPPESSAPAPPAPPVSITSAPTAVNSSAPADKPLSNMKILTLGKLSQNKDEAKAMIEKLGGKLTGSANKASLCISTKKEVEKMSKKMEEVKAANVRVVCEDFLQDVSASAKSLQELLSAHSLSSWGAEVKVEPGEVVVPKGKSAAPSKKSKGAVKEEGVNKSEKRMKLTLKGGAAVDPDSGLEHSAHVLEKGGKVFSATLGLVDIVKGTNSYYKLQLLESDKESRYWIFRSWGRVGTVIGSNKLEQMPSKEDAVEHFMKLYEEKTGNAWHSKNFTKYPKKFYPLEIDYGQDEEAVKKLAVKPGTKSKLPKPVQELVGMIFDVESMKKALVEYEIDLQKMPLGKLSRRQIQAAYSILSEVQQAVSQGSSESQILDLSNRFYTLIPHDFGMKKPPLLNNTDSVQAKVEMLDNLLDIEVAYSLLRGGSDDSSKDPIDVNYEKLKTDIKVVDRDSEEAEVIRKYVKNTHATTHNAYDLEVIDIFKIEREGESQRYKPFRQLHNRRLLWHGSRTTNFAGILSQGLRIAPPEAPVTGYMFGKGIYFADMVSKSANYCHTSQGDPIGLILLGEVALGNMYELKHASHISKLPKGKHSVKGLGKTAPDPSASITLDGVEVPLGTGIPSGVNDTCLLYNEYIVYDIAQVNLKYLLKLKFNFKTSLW
UniProt A0A8I6A0B6, entry or part of it: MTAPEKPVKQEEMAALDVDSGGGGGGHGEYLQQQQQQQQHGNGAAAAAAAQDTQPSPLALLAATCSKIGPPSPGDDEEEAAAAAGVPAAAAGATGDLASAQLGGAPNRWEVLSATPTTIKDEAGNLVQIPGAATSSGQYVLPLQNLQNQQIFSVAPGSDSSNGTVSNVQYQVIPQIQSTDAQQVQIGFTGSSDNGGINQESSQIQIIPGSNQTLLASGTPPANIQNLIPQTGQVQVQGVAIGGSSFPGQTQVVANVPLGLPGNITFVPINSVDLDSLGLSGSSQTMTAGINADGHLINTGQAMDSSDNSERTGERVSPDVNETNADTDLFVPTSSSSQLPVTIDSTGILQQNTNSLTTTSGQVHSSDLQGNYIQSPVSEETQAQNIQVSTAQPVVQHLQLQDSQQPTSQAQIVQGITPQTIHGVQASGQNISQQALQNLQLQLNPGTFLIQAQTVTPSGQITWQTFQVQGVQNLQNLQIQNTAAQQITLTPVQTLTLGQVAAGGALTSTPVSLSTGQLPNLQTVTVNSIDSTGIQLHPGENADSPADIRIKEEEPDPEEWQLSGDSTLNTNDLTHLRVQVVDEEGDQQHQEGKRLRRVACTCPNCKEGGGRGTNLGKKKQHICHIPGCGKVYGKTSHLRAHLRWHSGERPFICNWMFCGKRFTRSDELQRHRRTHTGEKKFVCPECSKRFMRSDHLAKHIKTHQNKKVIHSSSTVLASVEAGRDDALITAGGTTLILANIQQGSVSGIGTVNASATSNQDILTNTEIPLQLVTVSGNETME

Series [1] concerns RINm5F nuclear factors (IL-6/dexamethasone-induced GC box-like binding complex containing PARP) (Rattus norvegicus). Kind of series: competition with a labelled probe. To be noted: 100-fold excess unlabeled, protein in an extract.
For series [2], the target named is PARP (113 kDa nuclear protein), RINm5F nuclear extract (Rattus norvegicus) (UniProt P27008). Kind of series: binding assay. To be noted: Southwestern blot; 113 kDa band matched by anti-PARP antibodies; independent of poly(ADP-ribosyl)ation; protein in an extract; label: 32P.
Series [3] has as its target Sp3, RINm5F nuclear extract (Rattus norvegicus) (UniProt A0A8I6A0B6). Briefly: EMSA. To be noted: supershift with anti-Sp3; the inducible active complex was not supershifted; protein in an extract; label: 32P. (In general: Mobility shift assays separate free from complexed probe on a gel.)
Series [4] deals with RINm5F nuclear factors (IL-6/dexamethasone-induced GC box-like binding complex containing PARP) (Rattus norvegicus). Briefly: EMSA. To be noted: lowest band only after IL-6/dexamethasone with or without nicotinamide; attenuated by beta-NAD+; protein in an extract; label: 32P.

Results from cells or extracts need not show a direct contact. For some assays here: For at least one entry, the source does not settle the construct or the ends of the probe. For some assays here: No signal at the amounts used counts as a negative.

“AGGAGAAAGAAGGGCGTAGTATCTA (double strand) [GKLF binding sequence]”: in series [1] (no competition), the binding result is reported as “no binding”. On to “ATTCGATCGGGGCGGGGCGAGC (double strand) [Sp1 GC box consensus]”, for which the binding result in series [1] (all bands disappeared) is “binds”. Consider “TCAGCTTTTGGGAATGTATTCCCTGTCA (double strand) [IK-BS4 Ikaros binding sequence]”, for which the binding result in series [1] (no competition) is recorded as “no binding”. For the sequence “TTCCTTGCCCCGCCCATTTTTC (double strand) [Probe M2]”, in series [1] (all bands disappeared, variant of Probe 1 (rat Reg -86 to -65)), the binding result is “binds”. As to “TTCCTTGCCCCTAACATTTTTC (double strand) [Probe M1]”, the binding result in series [1] (no competition, variant of Probe 1 (rat Reg -86 to -65)) is “no binding”. Consider “TTCCTTGCCCCTCCCATTTTTC (double strand) [Probe 1 (rat Reg -86 to -65)]”, for which the binding result in series [2], in series [3] and in series [4] was “binds” throughout.
